This assay is described as follows: qHTS Assay for Modulators of Lamin A Splicing. The note with it: HeLa LMNA splicing GFP/RFP minigene ratio, 48 h. In short, it runs like this:
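S3 HeLa stable clones carrying a lamin A-EGFP splicing minigene plus DsRed2 were seeded at 600 cells/well in Opti-MEM with 2% FBS, pin-dosed and incubated 48 h at 37°C. Acumen cytometry (488 nm) gave the GFP/RFP total-intensity ratio.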
In general terms: Quantitative high-throughput screening tests each substance at several concentrations.

Where [1] appears, read: measured here: GFP splicing reporter channel.
[2] abbreviates: measured here: RFP viability control channel.

The other results are listed elsewhere or left out. Further columns of the screen follow, without active or inactive calls. Most of these compounds were active or inconclusive in the main read-out, so they are no random draw. The note in brackets gives the kind of curve behind each potency; many fits are weak.

Take `CCNC(=S)N1CCCC(c2nc3ccc(C)cc3[nH]2)C1` (configuration not stated): the AC50 under setting [1] is 0.251 µM [falling, full curve] and the AC50 under setting [2] was 0.501 µM [falling, full curve].
As to `Cc1ccc(SCC(=O)Nc2ccccc2C(=O)O)cc1`, the AC50 under setting [2] is 15.8 µM [rising, single point].
On to `CCc1ccc(OCCNC(=O)c2cccs2)cc1`, for which, under setting [2], the AC50 is 35.5 µM [rising, single point].
In the case of `N#CC(C(=O)NC1CC1)c1nc2ccccc2nc1N1CCN(C/C=C/c2ccccc2)CC1` (configuration not stated), the half-maximal activity concentration (AC50) under setting [2] is 0.112 µM [rising, full curve, poor fit].
For the molecule `Cc1cccc(N2CCN(C(=O)COCc3cc(-c4ccc5c(c4)OCO5)on3)CC2)c1C`, the half-maximal activity concentration (AC50) runs as follows: under setting [1], 14.1 µM [rising, partial curve, poor fit]; under setting [2], 31.6 µM [rising, single point].
For the molecule `O=C1c2cccnc2C(Nc2ccc(Br)cc2Br)N1Cc1cccs1` (configuration not stated), under setting [1], the AC50 was 35.5 µM [falling, partial curve, poor fit].
Turning to `CCCOc1ccc(Cn2cnc3ccccc32)cc1`, the AC50 under setting [2] was 7.94 µM [rising, partial curve].
`N#CC1=C(SCc2ccccc2)NC(=O)CC1c1ccco1` (configuration not stated): under setting [1], the AC50 was 10 µM [rising, partial curve, poor fit].
`CCOC(=O)c1sc(NC(=O)CSc2nc3c(c(=O)n2-c2ccc(C)cc2)SCC3)c(C(=O)OCC)c1C`: the AC50 was 0.0562 µM [falling, full curve, poor fit] under setting [1] and 0.0398 µM [falling, full curve] under setting [2].
On to `C/C(=N\NC(=O)c1c(Br)c(C)nn1C)c1cccc(NC(=O)c2ccccc2C)c1`, for which the AC50 is, setting by setting: under setting [1], 12.6 µM [rising, partial curve, poor fit]; under setting [2], 10 µM [rising, partial curve].
As to `Cc1nc(NC(=O)/C=C/c2ccccc2)sc1C(=O)Nc1ccc(Cl)cc1`, the AC50 under setting [1] is 22.4 µM [falling, single point] and the AC50 under setting [2] was 25.1 µM [falling, single point].
On to `CCCc1ccc(C#N)c(SC2CC(=O)N(c3ccc(OC)cc3)C2=O)n1` (configuration not stated), for which the AC50 under setting [1] is 0.0794 µM [rising, full curve, poor fit].
Take `Cc1cc(C(=O)CSc2ncn[nH]2)c(C)n1-c1cccc(S(=O)(=O)N2CCOCC2)c1`: the AC50 under setting [2] was 0.891 µM [rising, partial curve].
`CCOC(=O)c1ccc(NC(=S)N(CCCN2CCN(C)CC2)Cc2cccs2)cc1`: the AC50 under setting [1] was 17.8 µM [falling, partial curve, poor fit].
As to `Cc1cc(C)c(C(N)=O)c(SCC(=O)c2cc(C)c(C)cc2C)n1`, under setting [2], the AC50 was 10 µM [rising, partial curve].
With `Cc1ccc(CNS(=O)(=O)c2cc(C(=O)Nc3ccc(C(C)C)cc3)ccc2F)cc1`, the AC50 is, setting by setting: under setting [1], 6.31 µM [falling, full curve]; under setting [2], 3.16 µM [falling, full curve, poor fit].
Regarding `O=C(Nc1ccc(Cl)c(Cl)c1)N1CC=C(c2ccccc2)CC1`, the AC50 under setting [2] is 35.5 µM [falling, single point].
As to `COc1ccc(N2CCN(C(=O)CNC(=O)Cn3c(C)cc4ccccc4c3=O)CC2)cc1`, under setting [1], the AC50 is 5.62 µM [rising, single point].
In the case of `O=[N+]([O-])c1cccc(/C=N\N2CCN(Cc3ccccc3Cl)CC2)c1`, the AC50 runs as follows: under setting [1], 14.1 µM [rising, partial curve]; under setting [2], 28.2 µM [rising, partial curve].
For the molecule `Cc1ccc(-c2nc(C#N)c(NCc3cccc4c3OCO4)o2)cc1`, the AC50 under setting [2] was 22.4 µM [rising, single point].
Take `CC1Cc2cccc3c(O)c(C(=O)c4nn[nH]n4)c(=O)n1c23` (configuration not stated): the AC50 under setting [2] was 0.0501 µM [rising, full curve].
Consider `CN(C(=O)CSC1=NC2C(N=N1)c1cc(Br)ccc1N2C)C1CCCCC1` (configuration not stated), for which the AC50 is, setting by setting: under setting [1], 0.0316 µM [falling, full curve, poor fit]; under setting [2], 0.002 µM [falling, full curve, poor fit].
Turning to `C/C(=N\OCC(=O)N/N=C/c1ccccc1O)c1cccs1`, the AC50 under setting [2] was 35.5 µM [rising, single point].
In the case of `CCN(CC)c1ccc(NC(=O)c2ccccc2F)cc1`, under setting [2], the AC50 is 7.94 µM [rising, partial curve, poor fit].
Take `CCN(CC)c1ccc(/C=N/N2CCN(Cc3ccccc3)CC2)c(O)c1`: under setting [2], the AC50 is 20 µM [rising, single point].
As to `COc1ccc(CCNC(=S)Nc2ccccc2C)cc1`, the half-maximal activity concentration (AC50) runs as follows: under setting [1], 20 µM [falling, single point]; under setting [2], 22.4 µM [falling, single point].
For the molecule `COc1ccccc1CNCC(=O)NCc1ccc(C)cc1`, under setting [2], the concentration at half-maximal activity (AC50) was 3.16 µM [rising, full curve, poor fit].
As for `CC1CCc2nc(NC(=O)c3ccc(S(=O)(=O)N4CCCc5ccccc54)cc3)sc2C1` (configuration not stated), the AC50 under setting [2] is 3.16 µM [rising, single point].
On the same count and under the same terms, next, `COc1cc2c(cc1OC)C(CSc1ccccc1C(=O)O)=NC(C)(C)C2`: 0.891 µM [falling, full curve, poor fit].
On to `COc1cc2cc(CN(C(=O)NC3CCCCC3)C3CCCC3)c(=O)[nH]c2cc1OC`, for which the AC50 under setting [1] is 11.2 µM [rising, single point].
Turning to `CC(OC(=O)c1cc(=O)[nH]c2ccccc12)C(=O)c1ccccc1` (configuration not stated), the AC50 under setting [1] was 0.316 µM [rising, full curve] and the AC50 under setting [2] was 0.708 µM [rising, full curve].
`Nc1nc(SCc2ccc(Cl)cc2)[nH]c(=O)c1-c1ccccc1`: the AC50 under setting [2] was 35.5 µM [rising, single point].
As for `Cc1ccc(Nc2nc(N)nc(CSC(=S)N3CCN(c4ccccc4)CC3)n2)cc1`, under setting [2], the AC50 is 12.6 µM [rising, partial curve].
Take `O=C(c1ccco1)N1CCN(S(=O)(=O)c2ccc(Oc3ccccc3)cc2)CC1`: the AC50 under setting [2] is 15.8 µM [rising, single point].
In the case of `CCN(Cc1ccncc1)Cc1cn(C)nc1-c1ccc(Oc2ccccc2)cc1`, the AC50 reads like this: under setting [1], 35.5 µM [falling, partial curve, poor fit]; under setting [2], 35.5 µM [falling, partial curve, poor fit].
As to `CSc1nnc2c(n1)[nH]c1c(C)cccc12`, the AC50 under setting [2] was 25.1 µM [rising, single point].

One may read the AC50 as the midpoint of the concentration-response curve, whichever way the signal moves.

Source of the values: PubChem BioAssay AID1487 (National Center for Advancing Translational Sciences (NCATS), 2009).
